# Measured values as given in PubChem BioAssay AID540276 (National Center for Advancing Translational Sciences (NCATS), 2011).
# Out of some 300,000 compounds screened, about 5,400 (1.8%) were called active. Inconclusive means that the source gave no clear call. Such entries were picked first, then a sample of the others. The call rests on the fitted dose curve; tested in HEK293 cells. Potencies beside an inconclusive call are fits to weak or partial responses and may not hold up.
# Assay: qHTS for inhibitors of binding or entry into cells for Marburg Virus
# Settings: Marburg virus pseudotyped entry inhibition, cell reporter; activity change, negative = inhibition: at 37.8 µM (top of the series) unless noted
# On the % scale 0 is the no-effect control and ±100 the full control effect; potency means the concentration at half of the fitted maximal effect.
Compound,Potency,"activity change, negative = inhibition"
N#Cc1c(N2CCN(c3ccc([N+](=O)[O-])cc3)CC2)[n+](=O)c2ccc(Cl)cc2n1[O-],"inconclusive: 3.55 µM [inhibitor, full curve, poor fit]",
CC1CCCCC1NC(=O)c1ccc(S(=O)(=O)NCC2CCCO2)cc1 (stereo not given),"inconclusive: 0.794 µM [inhibitor, single point]",
COC(=O)C1=C(C(=O)OC)[C@@H]2N(Cc3ccccc3)c3ccccc3[C@@]23C[C@@H](C(=O)OC)N(C(=O)NCc2ccccc2)C3=C1,,inactive: 15.9% [at 14.2 µM]
c1cncc(C2Nc3ccccc3-c3nc4ccccc4n32)c1 (stereo not given),,inactive: -2.87%
COc1ccc(-c2cc(-c3cc(OC)ccc3O)[nH]n2)cc1,"inconclusive: 2.24 µM [activator, partial curve, poor fit]",
COc1ccc(C(=O)NCCCN2CCOCC2)cc1S(=O)(=O)N1CCCc2ccccc21,"inconclusive: 3.98 µM [activator, partial curve, poor fit]",
Nc1cccc(-c2nc3ncccc3o2)c1,,inactive: 8.12%
N#Cc1nc(-c2ccco2)oc1NCCc1ccccc1,"inconclusive: 31.6 µM [activator, single point]",
O=C(NCc1ccccc1F)Nc1ccc([N+](=O)[O-])cc1,"inconclusive: 8.91 µM [inhibitor, full curve, poor fit]",
CCOc1ccc(N2CC(=O)N(c3ccc(OCC)cc3)CC2=O)cc1,,inactive: -0.096%
CCCNS(=O)(=O)c1ccc(OCC(=O)N2CCN(Cc3ccc4c(c3)OCO4)CC2)c(C)c1,"inconclusive: 7.94 µM [inhibitor, single point]",
Cc1ccc(Nc2nc(-c3c(C)n(C)n(-c4ccccc4)c3=O)c(C)s2)cc1,"inconclusive: 25.9 µM [inhibitor, partial curve, poor fit]",
Brc1ccc(C2C3=C(Nc4ncnn42)c2ccccc2OC3c2ccncc2)cc1 (stereo not given),"inconclusive: 6.51 µM [inhibitor, partial curve]",
O=C(C(O)c1ccccc1)N1N=C(c2ccccc2)CC1(O)C(F)(F)F (stereo not given),"inconclusive: 6.31 µM [inhibitor, single point]",
O=C(O)c1ccccc1C(=O)NCC(O)c1ccccc1 (stereo not given),"inconclusive: 6.31 µM [inhibitor, single point]",
COc1ccc([N+](=O)[O-])c(OC)c1C(=O)Nc1ccc(F)cc1F,"inconclusive: 10 µM [activator, partial curve, poor fit]",
CCNC(=O)NC(=O)C(C)OC(=O)C1CCN(S(=O)(=O)c2ccccc2F)CC1 (stereo not given),"inconclusive: 0.158 µM [inhibitor, full curve, poor fit]",
O=C(Nc1ccc(Cl)c(-c2nc3ccccc3o2)c1)c1cccc2c(Cl)cccc12,,inactive: 2.73% [at 46.1 µM]
CN1CCN(S(=O)(=O)Cc2ccc(Cl)cc2)CC1,,inactive: 19% [at 46.1 µM]
NC(=O)C1CCN(C2=C(Cl)C(=O)c3ccccc3C2=O)CC1,"inconclusive: 25.9 µM [inhibitor, partial curve, poor fit]",
COc1cccc(CNCc2ccc(OC)c3ccccc23)c1OC,"inconclusive: 17.8 µM [inhibitor, single point]",
CC(Sc1cccc[n+]1[O-])c1ccccc1 (stereo not given),"inconclusive: 35.5 µM [inhibitor, single point]",

# Quoted at random: 2 entries already listed.
Compound,Potency,"activity change, negative = inhibition"
O=C(C(O)c1ccccc1)N1N=C(c2ccccc2)CC1(O)C(F)(F)F (stereo not given),"inconclusive: 6.31 µM [inhibitor, single point]",
COc1ccc(-c2cc(-c3cc(OC)ccc3O)[nH]n2)cc1,"inconclusive: 2.24 µM [activator, partial curve, poor fit]",

# Going on with the list:

Compound,Potency,"activity change, negative = inhibition"
COc1ccc(/C=N/N(CCC(=O)NC(C)(C)C)C2=NS(=O)(=O)c3ccccc32)cc1,"inconclusive: 1.26 µM [activator, partial curve, poor fit]",
O=S(=O)(c1cnc[nH]1)N1CCc2ccccc21,,inactive: -5.57%
O=S(=O)(c1ccccc1)c1nc(-c2ccco2)oc1NCCCn1ccnc1,,inactive: 12.4%
Cc1cc(NC(=O)COC(=O)c2c(C)nn(Cc3ccccc3)c2Cl)no1,"inconclusive: 20.6 µM [inhibitor, single point]",
O=C(CSc1nc2ccc(Cl)cc2[nH]1)NCCc1ccccc1,"inconclusive: 35.5 µM [inhibitor, single point]",
Cc1ccc(N(CC(O)CN2CCCCC2)S(=O)(=O)c2ccccc2[N+](=O)[O-])cc1 (stereo not given),"inconclusive: 10 µM [inhibitor, partial curve, poor fit]",
CCC(=O)Nc1cccc(NC(=O)c2cc3ccccc3o2)c1,"inconclusive: 2.24 µM [activator, partial curve]",
CCOP(=O)(OCC)c1nc(-c2cccc3ccccc23)oc1NCCc1ccc(OC)cc1,"inconclusive: 22.4 µM [inhibitor, partial curve, poor fit]",
CCOc1cccc(NC(=O)C2CCCN(S(=O)(=O)c3ccc(-n4cnnn4)cc3)C2)c1 (stereo not given),"inconclusive: 12.6 µM [inhibitor, partial curve, poor fit]",
COc1cc(OC)c(/C=N/NC(N)=S)cc1Br,"inconclusive: 8.91 µM [inhibitor, partial curve, poor fit]",
CCOC(=O)c1cc2sccc2n1CC(=O)Nc1ccc2c(c1)OCCO2,"inconclusive: 7.3 µM [activator, partial curve, poor fit]",
Oc1ccccc1-c1cc(C(F)(F)C(F)F)[nH]n1,"inconclusive: 29.1 µM [inhibitor, single point]",
CC(=O)NCc1ccc(S(=O)(=O)N/N=C/c2ccc(N(C)C)cc2)cc1,"inconclusive: 5.01 µM [activator, partial curve]",
COc1ccc(C(=O)Cc2ccc(F)cc2)c(OC)c1,"inconclusive: 29.1 µM [activator, partial curve, poor fit]",
COc1cc(CN2CCNC(=O)C2CC(=O)N2CCCO2)cc(OC)c1 (stereo not given),,inactive: 4.83%
O=C(C1CCCN(S(=O)(=O)c2cccc3nonc23)C1)N1CCN(c2cccc(C(F)(F)F)c2)CC1 (stereo not given),,inactive: 13.1% [at 46.1 µM]
CC(C)COc1cccc(C(=O)Nc2ccc(CN3CCOCC3)cc2)c1,"inconclusive: 7.94 µM [inhibitor, single point]",
COc1ccccc1NC(=O)COc1ccc(Br)cc1CNC1CCCC1,active: 5.62 µM,
COc1ccc(OCC(O)CN(CCO)CC(O)Cn2ccc3ccccc32)cc1 (stereo not given),"inconclusive: 7.94 µM [inhibitor, partial curve, poor fit]",
CCOc1ccc(C(=O)c2cn(Cc3cccc(OC)c3)c3cc4c(cc3c2=O)OCO4)cc1,"inconclusive: 35.5 µM [inhibitor, single point]",
CCCn1nc(C(=O)OCC(=O)Nc2cccc(OC)c2)c2ccccc2c1=O,,inactive: -10.7% [at 46.1 µM]
Cc1cccc(Oc2ccc(N)cc2)c1,,inactive: 23.3%

Compound,Potency,"activity change, negative = inhibition"
CN(C)CCCN(Cc1cc2cc3c(cc2[nH]c1=O)OCO3)C(=S)NCc1ccco1,"inconclusive: 14.1 µM [inhibitor, partial curve, poor fit]",
O=C(Nc1cccc2ccccc12)c1ccc(OC(=S)N2CCOCC2)cc1,active: 2.59 µM,
Nc1c(C(=O)NCCN2CCOCC2)c2nc3ccccc3nc2n1Cc1ccccc1,"inconclusive: 15.8 µM [inhibitor, single point]",
CC1=NN(c2ccccc2)C(=O)C1N=Nc1cccc(O)c1 (stereo not given),"inconclusive: 20 µM [inhibitor, partial curve, poor fit]",
COc1ccc(Nc2ccc(Cl)cc2)c(C(=O)O)c1,"inconclusive: 35.5 µM [inhibitor, single point]",
CC(C)c1ccc(/C=C/C2=NNC(=O)CC2)cc1,"inconclusive: 3.98 µM [inhibitor, partial curve, poor fit]",
Cc1cccc(NC(=O)c2ccoc2C)n1,,inactive: -4.83%
CCOC(=O)CCCSc1nnc(CCCCCN2C(=O)c3cccc4cccc(c34)C2=O)o1,,inactive: 20.5%
Cc1ccc2c(c1)N(CC(=O)NCCCN1CCN(C)CC1)C(=O)CO2,,inactive: -9.11% [at 46.1 µM]
CN(CC(=O)Nc1ccc(Cl)c(C(F)(F)F)c1)C(=O)c1cccs1,"inconclusive: 5.01 µM [inhibitor, partial curve, poor fit]",
CC1(C)O[C@@H](C(O)(c2cc(F)c(F)c(F)c2)c2cc(F)c(F)c(F)c2)[C@H](C(O)(c2cc(F)c(F)c(F)c2)c2cc(F)c(F)c(F)c2)O1,"inconclusive: 1.88 µM [inhibitor, partial curve, poor fit]",
O=C(NCc1ccccc1Cl)C(=O)NCC1OCCN1S(=O)(=O)c1ccc(F)cc1 (stereo not given),"inconclusive: 20 µM [activator, single point]",
Cc1cc(C(=O)CCl)c(C)n1CCc1ccc(Cl)cc1,"inconclusive: 10 µM [inhibitor, partial curve, poor fit]",
COc1ccc(CNc2nc(NCc3ccc(OC)cc3)n(C(=O)c3ccccc3[N+](=O)[O-])n2)cc1,,inactive: 4.75%
CC(C)Cn1c([N+](=O)[O-])nc2c1c(=O)[nH]c(=O)n2C,"inconclusive: 8.91 µM [inhibitor, partial curve, poor fit]",
CCN(Cc1ccccc1)S(=O)(=O)c1ccc(C(=O)N(CCCN(C)C)c2nc3cc4c(cc3s2)OCO4)cc1,"inconclusive: 12.6 µM [inhibitor, partial curve, poor fit]",
COC(=O)c1ccc([C@H]2Nc3ccc(S(=O)(=O)Nc4ccc(F)cc4)cc3[C@H]3C=CC[C@H]32)cc1,,inactive: 1.22% [at 46.1 µM]
Cc1ccc(-c2n[nH]c3c2CCC3)cc1,"inconclusive: 2.51 µM [activator, full curve, poor fit]",
O=C(Nc1ccc(Cl)c(Cl)c1)N(Cc1c[nH]c2ccccc12)C1CCCCC1,"inconclusive: 10 µM [activator, partial curve, poor fit]",
Cc1ccc(-n2nnnc2SCC(=O)N2CCc3ccccc3C2)cc1,,inactive: 29.4%
O=C(CSc1ccc2nnc(-c3cccnc3)n2n1)N1CCc2ccccc21,,inactive: 0.357%

# Structures shown so far with a CF3 group, in the order listed:
Compound,Potency,"activity change, negative = inhibition"
O=C(C(O)c1ccccc1)N1N=C(c2ccccc2)CC1(O)C(F)(F)F (stereo not given),"inconclusive: 6.31 µM [inhibitor, single point]",
O=C(C1CCCN(S(=O)(=O)c2cccc3nonc23)C1)N1CCN(c2cccc(C(F)(F)F)c2)CC1 (stereo not given),,inactive: 13.1% [at 46.1 µM]
CN(CC(=O)Nc1ccc(Cl)c(C(F)(F)F)c1)C(=O)c1cccs1,"inconclusive: 5.01 µM [inhibitor, partial curve, poor fit]",
